Source: patent US20050170468A1 (published 2005)
These are yes or no findings as the source states them, for the method shown. Some binding calls cover weakened binding; strength is not graded here.

Columns and labels:
[1] = biological target: T1, IL-20RA/IL-20RB heterodimeric receptor (on cells) (human) (UniProt Q9UHF4); experiment: binding to transfected cell lines, told in words
T1 sequence 1: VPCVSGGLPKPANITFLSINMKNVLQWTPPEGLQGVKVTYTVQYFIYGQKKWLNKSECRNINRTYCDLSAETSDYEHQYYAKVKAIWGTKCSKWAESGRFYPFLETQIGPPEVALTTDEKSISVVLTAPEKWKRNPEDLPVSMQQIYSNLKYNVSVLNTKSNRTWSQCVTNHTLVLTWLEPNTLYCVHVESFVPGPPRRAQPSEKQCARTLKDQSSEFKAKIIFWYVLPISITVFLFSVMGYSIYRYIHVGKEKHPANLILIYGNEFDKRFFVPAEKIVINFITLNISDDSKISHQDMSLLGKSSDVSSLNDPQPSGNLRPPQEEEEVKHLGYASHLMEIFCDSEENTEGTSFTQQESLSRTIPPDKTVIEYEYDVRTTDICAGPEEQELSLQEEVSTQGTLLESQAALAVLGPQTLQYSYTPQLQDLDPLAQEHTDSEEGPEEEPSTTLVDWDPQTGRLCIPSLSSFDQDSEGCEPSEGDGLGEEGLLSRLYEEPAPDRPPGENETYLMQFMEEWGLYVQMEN
T1 sequence 2: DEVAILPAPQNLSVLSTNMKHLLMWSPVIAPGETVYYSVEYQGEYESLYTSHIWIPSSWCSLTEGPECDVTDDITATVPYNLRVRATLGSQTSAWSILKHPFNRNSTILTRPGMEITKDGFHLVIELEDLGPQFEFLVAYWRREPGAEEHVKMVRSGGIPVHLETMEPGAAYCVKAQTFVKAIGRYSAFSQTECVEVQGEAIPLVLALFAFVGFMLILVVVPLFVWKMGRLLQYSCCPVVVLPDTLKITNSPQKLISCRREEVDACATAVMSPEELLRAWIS

[2] = biological target: T1, IL-20RA/IL-20RB heterodimeric receptor (on cells) (human); experiment: radiolabeled ligand binding assay on stably transfected BHK cells
[3] = biological target: T1, IL-20RA/IL-20RB heterodimeric receptor (on cells) (human); experiment: cell-based binding assay (secretion trap) on transiently transfected COS cells

Measured: binding

B1: IL-20 (ligand)
chain: LKTLNLGSCVIATNLQEIRNGFSDIRGSVQAKDGNIDIRILRRTESLQDTKPANRCCLLRHLLRLYLDRVFKNYQTPDHYTLRKISSLANSFLTIKKDLRLCHAHMTCHCGEEAMKKYSQILSHFEKLEPQAAVVKALGELDILLQWMEETE
modifications: biotin label in Example 6; 125I label in Example 10
notes: also called Zcyto10; biotinylated IL-20 protein
binds: all assays above
